From paper PMC12677607, “Identification of a Pair of Linear or Cyclic Naturally Inspired Bifunctional Lipopeptide Antibiotics That Overcome Antimicrobial Resistance” (Advanced Science, 2025)
Bridge positions count the residues as written; N and C are the ends. Square brackets hold non-standard residues; d marks the D form. Peptide text beside a SMILES is read from it. * marks the point of attachment. Myristoyl = CCCCCCCCCCCCCC(=O)*; Orn = NCCC[C@H](N)C(=O)O; Dab = NCC[C@H](N)C(=O)O; Dap = NC[C@H](N)C(=O)O

Experiment: Isothermal titration calorimetry
Type: binding, Escherichia coli O55:B5
Settings: Table S12; ITC, in H2O
Method: Calorimetric experiments were performed to evaluate the interaction between CL, PE, PG, or LPS and aquicidine L or aquicidine C4. To determine the affinity between aquicidine L or aquicidine C4 and CL, PE, or PG, both 2 mM CL, PE, or PG and 0.2 mM aquicidine L or aquicidine C4 were dissolved in 20 mM HEPES buffer (pH 7.5). To determine the interaction between LPS and aquicidine L or aquicidine C4, 2 mM LPS and 0.2 mM aquicidine L or aquicidine C4 were dissolved in H2O. Sequential injections of CL, PE, PG, or LPS into the calorimetric cell filled with aquicidine L or aquicidine C4 were repeated 20 times with equilibration intervals of 200 s. Data were collected by using a MicroCal PEAQ‐ITC instrument and calculated for the equilibrium dissociation constant (KD), change of enthalpy (ΔH), and change of entropy […].

CCCCCCCCCCCCCC(=O)N[C@@H](CN)C(=O)N[C@H](C(=O)N[C@@H](CC(C)C)C(=O)N[C@H]1COC(=O)[C@H](Cc2ccccc2)NC(=O)[C@H](CC(N)=O)NC(=O)[C@H](CCCN)NC(=O)[C@H]([C@@H](C)CC)NC(=O)[C@H](Cc2ccccc2)NC(=O)[C@H](CN)NC(=O)[C@H](CCN)NC1=O)[C@@H](C)O [synAQU5-C4] (Myristoyl-[Dap]TLS[Dab][Dap]FI[Orn]NF; ester 4-C)
ΔG (kcal/mol), LPS: -7.59 kcal/mol
ΔH (kcal/mol), LPS: -1.93 kcal/mol
ΔS (kcal/mol/K), LPS: 0.019 kcal/mol/K

CCCCCCCCCCCCCC(=O)N[C@@H](CN)C(=O)N[C@H](C(=O)N[C@@H](CC(C)C)C(=O)N[C@@H](CO)C(=O)N[C@@H](CCN)C(=O)N[C@@H](CN)C(=O)N[C@@H](Cc1ccccc1)C(=O)N[C@H](C(=O)N[C@@H](CCCN)C(=O)N[C@@H](CC(N)=O)C(=O)N[C@@H](Cc1ccccc1)C(=O)O)[C@@H](C)CC)[C@@H](C)O [synAQU5-L] (Myristoyl-[Dap]TLS[Dab][Dap]FI[Orn]NF-OH)
ΔG (kcal/mol), LPS: -9.85 kcal/mol
ΔH (kcal/mol), LPS: -0.91 kcal/mol
ΔS (kcal/mol/K), LPS: 0.030 kcal/mol/K
